The exact form of at least one protein or probe is not confirmed. A weaker result is weaker than the reference pair of the same experiment. At least one verdict was read from the data and is not stated in words by the source. Protein sequences can lack the tags named with them.

The data set has as its target T1, KlIxr1 (Kluyveromyces lactis) (UniProt Q6CMQ4).
T1 sequence (looked up): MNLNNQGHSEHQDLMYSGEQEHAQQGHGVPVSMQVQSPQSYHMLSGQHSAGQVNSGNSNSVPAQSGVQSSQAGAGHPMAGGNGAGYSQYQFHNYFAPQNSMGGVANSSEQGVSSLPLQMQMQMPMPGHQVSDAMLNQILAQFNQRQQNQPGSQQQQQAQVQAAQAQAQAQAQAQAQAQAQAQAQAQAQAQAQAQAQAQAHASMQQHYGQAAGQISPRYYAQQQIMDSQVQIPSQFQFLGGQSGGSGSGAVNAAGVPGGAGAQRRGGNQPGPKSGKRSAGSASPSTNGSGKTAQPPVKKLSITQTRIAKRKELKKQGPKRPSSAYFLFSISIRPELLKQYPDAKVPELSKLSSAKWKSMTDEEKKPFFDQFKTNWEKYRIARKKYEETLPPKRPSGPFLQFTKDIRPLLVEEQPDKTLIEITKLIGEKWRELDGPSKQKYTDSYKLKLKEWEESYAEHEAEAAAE
Nature of the data set: competition with a labelled probe. The note with it: 200 nM protein, EMSA: 4 C 30 min, 500 nM DNA, 1 ug protein, 1 ug calf thymus DNA, buffer by reference, recombinant protein, residues …, protein details: N-terminal 6xHis, label: none (competitor). (A gel shift assay detects complexes by their altered migration in electrophoresis.)

For “TGGCCCAGCCTCTTGCGCACTCGTACCGGT (double strand) [HEM13B mutant]”, the binding result (FA vs labeled HEM13B) is “binds more weakly”.

For “ATCTTGAATGTATGTGCGCACAGCCTCTCC (double strand) [HEM13A mutant]”, under “FA vs labeled HEM13A”, the binding result is on record as “binds more weakly”.
